Measurements from patent US9175077B2, “Nucleic acids encoding biologically active polypeptides derived from a novel early stage pregnancy factor designated maternin (MA)” (NOBEL BIOSCIENCES LLC, priority 1999, dated 2015).
Some of these results come from one statement about several compounds together. Some compounds share one range, which may span the group rather than tell each member.

Experiment: Lethal dose taxol in Sprague-Dawley rats
Type: in vivo
Conditions: for survival of pretreated animals: higher dose, two doses 24 and 48 hrs before taxol; for day by which blood counts rebounded / day by which platelets, RBC and hemoglobin returned to normal and above: pretreated 2 days, not maintained; for day by which total lymphocytes returned to normal levels: treated after taxol, 3 weekly inoculations
Procedure: Sprague-Dawley rats were given taxol in large lethal doses, 4.5 mg in one I.P. inoculation. […] Bone marrow suppression can also be a side effect of the clinical use of taxol.^179 As in the radiation experiments, either MA, pMA, MAS1, or various polypeptide controls were given subcutaneously only in two doses 24 and 48 hrs before taxol treatment or were given 3×/week for 4 weeks. […]

Row | Substance | survival of pretreated animals | day by which blood counts rebounded [days] | day by which platelets, RBC and hemoglobin returned to normal and above [days] | day by which total lymphocytes returned to normal levels [days]
1 | VRFESIRLPGCPRGV (listed as Homo sapiens) [MAS1] | 80-90% | ≤ 15 | ≤ 20 | ≤ 20
2 | VVCNYRDVRFESIRLPGCPRGVNPVVSYAVALSCQ [MA] | 80-90% | ≤ 15 | ≤ 20 | ≤ 20
3 | pMA: natural peptide 38 amino acids in length, β-hCG 55-92 (SEQ ID NO: 3) (VVCNYRDVRFESIRLPGCPRGVNPVVSYAVALSCQCAL; listed as Homo sapiens) | 80-90% |  |  | 
